Experimental data taken from PMC2935386.
For some assays here: No signal at the amounts used counts as a negative. For some assays here: For at least one entry, the source does not settle the construct or the ends of the probe. For some assays here: Where a protein sequence is shown, tags need not be part of it.

Tests used:
[1] = system: TRβ1 DBD (TRβ1ΔAB/EF) + GATA2-Zf; assay: gel filtration + agarose EMSA; details: 100 uM each, no heterodimer on DNA, although each protein binds; recombinant protein; protein details: His (pET28a),His, thrombin treated; label: 5' fluorescein (FITC) on forward strand
[2] = biological target: T1, TRβ1 DBD-LBD (TR DL, TRβ1ΔAB) (human) (UniProt P10828); assay: fluorescence anisotropy; details: T3, Hill n 1.7±0.4; Fluorescence anisotropy: 10 nM DNA, 20 mM Hepes pH 8.0, 50 mM NaCl, 1 mM MgCl2, 3 mM DTT, 5% glycerol, 10°C; agarose gel 1.3% in 0.5x TBE; recombinant protein; residues 102-461; protein details: His (pET28a); label: 5' fluorescein (FITC) on forward strand
T1 sequence (looked up): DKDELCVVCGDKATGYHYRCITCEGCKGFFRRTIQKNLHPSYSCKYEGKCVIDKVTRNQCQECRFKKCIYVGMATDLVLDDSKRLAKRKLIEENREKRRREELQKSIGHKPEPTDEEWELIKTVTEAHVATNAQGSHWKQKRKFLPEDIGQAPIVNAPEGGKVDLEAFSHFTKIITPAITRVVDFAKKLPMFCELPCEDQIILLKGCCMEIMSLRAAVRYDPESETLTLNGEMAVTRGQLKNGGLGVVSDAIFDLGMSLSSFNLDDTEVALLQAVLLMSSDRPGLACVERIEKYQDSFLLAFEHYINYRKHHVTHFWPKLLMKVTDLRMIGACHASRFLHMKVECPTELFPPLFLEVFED

Row | Sequence | binding result [1] | Kd [2] [nM]
1 | TCAATAGATGCTTTTCAGATAAGAA (double strand) [TSH GATA-RE] | no binding | 
2 | TGGGTCACCACAGCATCTGCTCACCAATGCAAAGT (double strand) [TSH NRE] |  | 1180
